Data as given in PubChem BioAssay AID1259274 (Sanger Institute, 2017)
Shown is a random part of 794 reagents. 11 of all reagents (1.4%) count as active. 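Calls rest on knock-down without drug only; synergy scores with anchor drugs were not used for the essential call.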 Entries without a mark were called inactive. Viability is capped at 1. Reagent sequences are not shown. Not stated in the record: the amount of reagent, the time to read-out.

Assay: 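Kinases RKO cells need to grow, alone or with anchor drugs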 (primary screen)
Cell system: human RKO colorectal cancer cells
Reagent: siRNA pool against human genes
Treatment: anchor drugs BYL719 at 1 µM, cetuximab at 5 µg/ml or trametinib at 10 nM; DMSO vehicle as the no-drug arm
Measured: 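Viability of cells versus control pool 2 (non-targeting) averaged across replicates; knock-down-only robust z-score; for every anchor drug (BYL719, cetuximab, trametinib) a synergy score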
Reading the numbers: viability z-score, siRNA alone: higher = more viable cells; low values mean essential gene; viability, siRNA alone, vehicle: higher = more viable cells; synergy score with BYL719 and synergy score with Trametinib and synergy score with Cetuximab: higher = stronger combined killing with the drug
Rule for the call: 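Essential when the robust viability z-score with siRNA only falls below -3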
Meaning of the calls: active = essential when knocked down alone; inactive = no change alone

target	viability z-score, siRNA alone	viability, siRNA alone, vehicle (fraction of control)	synergy score with BYL719	synergy score with Trametinib	synergy score with Cetuximab
DYRK1A	-0.163	0.884	-0.0519	-0.0711	0.0282
AK3 (adenylate kinase 3)	1.02	0.986	0.108	-0.083	0.00714
PRAG1 (PEAK1 related, kinase-activating pseudokinase 1)	-0.0388	0.895	-0.0698	-0.0078	-0.0604
PFKFB2 (6-phosphofructo-2-kinase/fructose-2,6-biphosphatase 2)	-0.29	0.873	-0.0842	-0.168	-0.081
PNKP (polynucleotide kinase 3'-phosphatase)	0.962	0.98	-0.13	-0.0478	-0.00451
SRPK2 (SRSF protein kinase 2)	-1.12	0.802	-0.0809	-0.0978	0.0476
CDKL1 (cyclin dependent kinase like 1)	0.124	0.909	-0.0802	-0.17	-0.0914
CSNK2A1 (casein kinase 2 alpha 1)	0.649	0.954	0.0188	-0.193	0.037
PIK3CG	-1.02	0.81	-0.0263	-0.115	0.000665
DTYMK (deoxythymidylate kinase)	0.185	0.914	-0.0882	-0.134	0.121
TSSK3 (testis specific serine kinase 3)	-0.0995	0.889	-0.113	-0.0232	0.0142
KSR2 (kinase suppressor of ras 2)	-1.95	0.731	-0.0488	-0.103	-0.0359
BRDT (bromodomain testis associated)	1.19	1	-0.0578	-0.159	0.0174
PTK6 (protein tyrosine kinase 6)	0.186	0.914	-0.0612	-0.18	0.0522
PIM2 (Pim-2 proto-oncogene, serine/threonine kinase)	0.947	0.979	-0.022	-0.111	0.0548
STK16 (serine/threonine kinase 16)	0.898	0.975	-0.108	-0.309	0.0545
ITPK1 (inositol-tetrakisphosphate 1-kinase)	1.19	1	0.0959	-0.0961	0.0309
MAP3K6 (mitogen-activated protein kinase kinase kinase 6)	-0.227	0.879	-0.0867	-0.166	-0.101
PACSIN1 (protein kinase C and casein kinase substrate in neurons 1)	-0.168	0.884	-0.13	-0.0811	-0.00963
CTNNB1 (catenin beta 1)	0.766	0.964	-0.0814	-0.208	0.0309
